Experiment: general procedure: Fmoc solid-phase peptide synthesis; Tentagel S RAM (0.24 mmol/g); Rink Amide AM LL (0.26 mmol/g); Fmoc-Xaa-Wang LL preloaded resins (0.32 mmol/g); OxymaPure/DIC
Details: for isolated yield / isolated mass: whole synthesis; for isolated yield: scale of the general procedure 300 mg of resin (manual)

| Substance | isolated yield (trifluoroacetate salt, run 1) [%] | isolated yield (trifluoroacetate salt, run 2) [%] | isolated yield (trifluoroacetate salt) [%] | other results |
| --- | --- | --- | --- | --- |
| (AK)4(KKYE)2KAAA-OH | 10 | 9.6 | – | – |
| (AK)8(KAK)4(KEKA)2 KAKEAYCA‐NH2 | – | – | 23.2 | – |
| (AK)8(KAKAKY)4(KAKEYEY)2KAKEYEY-NH2 | – | – | 5.8 | – |
| (AKA)4(KEK)2KYEY-OH | 26 | 26.4 | – | – |
| (AKA)4(KKEY)2KE-OH | – | – | 17.6 | – |
| (AKA)8(KYEK)4(KEKA)2KAKY-OH | 9.4 | – | – | isolated yield (trifluoroacetate salt, anie202113562-tbl-0001 r7): 9% |
| (AKE)4(KAYA)2KKKK-NH2 | 11 | 11.4 | – | – |
| (AKE)4(KKAY)2KYKY-NH2 | – | – | 18.6 | – |
| (AKK)4(KYEK)2KKEA-NH2 | – | – | 49.3 | – |
| (AYK)4(KE)2KKAA-OH | – | – | 28.4 | – |
| (AcAK)4(KKYE)2KAAA-OH | 9 | 8.9 | – | – |
| (AcAKA)4(KEK)2KYEY-OH | – | – | 21 | – |
| (AcAKA)4(KEY)2KYKK-NH2 | 49 | 49.3 | – | – |
| (AcAKA)4(KKEY)2KE-OH | – | – | 31.1 | – |
| (AcAKA)8(KYEK)4(KEKA)2KAKY-OH | 9 | 8.7 | – | – |
| (AcAKE)4(KAYA)2KKKK-NH2 | 13 | 12.5 | – | – |
| (AcAKE)4(KKAY)2KYKY-NH2 | – | – | 27.9 | – |
| (AcAYK)4(KE)2KKAA-OH | – | – | 28.4 | – |
| (AcKA)4(KAYE)2KK-OH | 18 | 17.6 | – | isolated mass (trifluoroacetate salt, run 1): 23.6 mg |
| (AcKA)4(KEYA)2KKAK-OH | 10 | 9.7 | – | – |

| Substance | isolated yield (trifluoroacetate salt, run 1) [%] | isolated yield (trifluoroacetate salt, run 2) [%] | isolated yield (trifluoroacetate salt) [%] | other results |
| --- | --- | --- | --- | --- |
| (AcKA)8(KAK)4(KEKA)2KAKEAYCA-NH2 | – | – | 22.8 | – |
| (AcKA)8(KKAKE)4(KYKAKA)2KAYKKA-OH | – | – | 19.9 | – |
| (AcKA)8(KKKAK)4(KEKA)2 KAKEAYCA‐NH2 | – | – | 9.4 | – |
| (AcKAA)4(KYYE)2KAY-NH2 | 30 | 29.5 | – | – |
| (AcKAE)4(KAEK)2KYYA-OH | – | – | 34.1 | isolated mass (trifluoroacetate salt, run 1): 4.1 mg |
| (AcKAK)4(KAEY)2KAEA-OH | 2 | 2.3 | – | – |
| (AcKYA)4(KEA)2KKKA-OH | 43 | 42.7 | – | – |
| (ClAcAKA)4(KEK)2KYEY-OH | 8 | 8.2 | – | – |
| (ClAcAKA)8(KYEK)4(KEKA)2KAKY-OH | 9 | 8.6 | – | – |
| (ClAcAKE)4(KKAY)2KYKY-NH2 | 7 | 6.7 | – | – |
| (ClAcK)4(KAYE)2KAKYAEA-NH2) | – | – | 46.1 | – |
| (ClAcK)4(KEAKAKEY)2KAKEYEY-OH | – | – | 22.8 | – |
| (ClAcKA)4(KEYA)2KKAK-OH | – | – | 8 | – |
| (ClAcKAE)4(KAEK)2KYYA-OH | – | – | 33.8 | – |
| (ClAcKYA)4(KEA)2KKKA-OH | 31 | 30.5 | – | – |
| (FumAKA)4(KEY)2KYKK-NH2 | – | – | 23.6 | – |
| (FumAKE)4(KAYA)2KKKK-NH2 | 11 | 23.6 | – | – |
| (FumKA)8(KAK)4(KEKA)2KAKEAYCA-NH2 | – | – | 22.9 | – |
| (FumKA)8(KKAKE)4(KYKAKA)2KAYKKA-OH | – | – | 18.1 | – |
| (FumKA)8(KKKAK)4(KEKA)2 KAKEAYCA‐NH2 | – | – | 8.3 | – |

| Substance | isolated yield (trifluoroacetate salt, run 1) [%] | isolated yield (trifluoroacetate salt, run 2) [%] | isolated yield (trifluoroacetate salt) [%] | other results |
| --- | --- | --- | --- | --- |
| (K)4(KAYAEY)2KAKAEYA-NH2 | – | – | 43.5 | – |
| (KA)4(KAYE)2KK-OH | 35 | 34.8 | – | – |
| (KA)4(KEYA)2KKAK-OH | 20 | 20.3 | – | isolated mass (trifluoroacetate salt, run 1): 25.8 mg |
| (KA)8(KAK)4(KEKA)2 KAKEAYC(Fl)A‐NH2 | – | – | – | conjugation yield (conjugation step, trifluoroacetate salt): 40.6% |
| (KA)8(KAK)4(KEKA)2 KAKEAYCA‐NH2 | – | – | 7.6 | – |
| (KA)8(KAK)4(KEKA)2KAKEAYCA-NH2 | – | – | – | isolated yield (TFA salt): 7.7% |
| (KA)8(KKAKE)4(KYKAKA)2 KAYKKA‐OH | – | – | 15.6 | – |
| (KA)8(KKAKE)4(KYKAKA)2KAYKKA-OH | – | – | 9.0 | – |
| (KA)8(KKKAK)4(KEKA)2 KAKEAYCA‐NH2 | – | – | 8.6 | – |
| (KAA)4(KEKA)2KEKA-NH2 | – | – | 49.3 | – |
| (KAA)4(KEY)2KAKEYEYA-NH2 | – | – | 41.1 | – |
| (KAE)4(KAEK)2KYYA-OH | – | – | 30.0 | – |
| (KAEKAYA)4(KEKYAKA)2KEKYKA-NH2 | – | – | 25.6 | isolated mass (trifluoroacetate salt, run 1): 211.0 mg |
| (KAK)4(KEKA)2 KAKEAYCA‐NH2 | – | – | 14.1 | – |
| (KK)8(KAK)4(KEKA)2 KAKEAYCA‐NH2 | – | – | 18.9 | – |
| (KYA)4(KAE)2KAEYKCA-NH2 | – | – | 29.5 | isolated mass (trifluoroacetate salt, run 1): 127.7 mg |
| (KYA)4(KEA)2KKKA-OH | 39 | 39.2 | – | – |
| (ka)8(kak)4(keka)2 kakeayca‐NH2 | – | – | 18.3 | – |
| (ka)8(kkake)4(kykaka)2 kaykka‐OH | – | – | 16.7 | – |

— publication PMC9298260 (Angewandte Chemie (International Ed. in English), 2021)
